Results as given in US20240190903.
At least one result comes from cells or an extract, where the contact may be indirect. Tags and fusion partners may be left off the protein sequences shown. For part of these data: Construct, isoform or probe ends are uncertain for at least one entry.

What was measured:
[1] = biological target: T1, ERG (endogenous, VCaP nuclear extract + full-length and TMPRSS2-ERG T1/E4) (Homo sapiens) (UniProt P11308); experiment: EMSA; conditions: protein in an extract, label: 5'-biotin on forward strand
T1 sequence (looked up): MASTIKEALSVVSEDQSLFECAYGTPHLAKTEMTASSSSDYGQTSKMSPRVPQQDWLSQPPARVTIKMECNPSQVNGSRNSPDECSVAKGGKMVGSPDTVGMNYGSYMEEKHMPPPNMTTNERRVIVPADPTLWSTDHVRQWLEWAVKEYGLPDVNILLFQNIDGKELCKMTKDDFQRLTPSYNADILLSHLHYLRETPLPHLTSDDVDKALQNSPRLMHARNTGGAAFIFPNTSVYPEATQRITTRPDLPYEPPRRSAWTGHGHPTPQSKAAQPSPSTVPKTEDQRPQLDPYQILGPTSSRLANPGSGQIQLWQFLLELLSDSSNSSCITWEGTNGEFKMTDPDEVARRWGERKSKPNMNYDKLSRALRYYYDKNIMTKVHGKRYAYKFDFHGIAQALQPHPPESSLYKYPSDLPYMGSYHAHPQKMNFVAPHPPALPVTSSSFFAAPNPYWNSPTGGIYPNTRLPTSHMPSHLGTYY

[2] = biological target: T2, ERG (HA-tagged, expressed in 293T) (UniProt P11308); experiment: pull-down; conditions: reverse strand 5'-linked E3 ligase ligand (P1-P6); streptavidin pull-down from 293T cells transfected with 100 nM O'PROTAC; six O'PROTACs pooled here; protein in a lysate after overexpression; protein details: HA (pCMV-HA-ERG); label: 5'-biotin on forward strand
T2 sequence (looked up, limits assumed): T1 sequence (looked up)

Sequence: ACGGACCGGAAATCCGGTT (double strand) [Biotin-ERG OP-C-P1]
- binding result ([1]; reverse strand 5'-L1-phthalic acid): binds

Sequence: ACGGACCGGAAATCCGGTT (double strand) [Biotin-ERG OP-C-N1]
- binding result ([1]; reverse strand 5'-L7-pomalidomide (CRBN ligand)): binds

Sequence: ACGGACCGGAAATCCGGTT (double strand)
- binding result [2]: binds
